{"source": "patent US5780243A", "about": "“Methods for the quantitative analysis of organic compounds” (Thaco Research, Ltd., priority 1996, dated 1998)", "assay": "Competitive ELISA of analyte from fortified liver tissue homogenates (precision and recovery)", "procedure": "The following method is a competitive enzyme linked immunosorbent assay (ELISA) for the assay of spectinomycin residues in various animal tissues and fluids and is applicable to total residue concentrations of approximately 0.1 ppm to in excess of 200 ppm in tissues.\nA five-gram aliquot of tissue was weighed into a 250-mL centrifuge bottle. After the addition of 50 mL PBST extraction buffer (0.1% Tween-20 in 0.01M phosphate buffered saline, pH 7.2), sample was homogenized using a Polytron homogenizer. The homogenized sample was centrifuged at 5,000 g-av for 30 minutes at 10° C. to sediment the solids. Supernatant was decanted into a 250-mL graduated cylinder. The homogenization and sedimentation process was repeated two more times, the supernatants were combined and the final volume adjusted to 200 mL with extraction buffer.\nTo the combined supernatants, 1 mL of 4% sodium azide was added (final concentration 0.02%) to prevent microbial growth. The entire sample was further clarified by centrifugation and the supernatant was carefully decanted. A 4-mL aliquot of extract processed in this manner corresponds to 0.1 g of tissue.\nA plate plan was laid out for each microtiter plate prior to the start of the assay. The plate plan designates wells for standard curves, antigen-negative wells, primary antibody negative wells, a positive control well and samples with replicates.\nThe coating antigen (100 μL) was added to each well according to the plate plan. Wells were selected as antigen-negative are coated with 0.01M PBS only. Plates were covered with sealing tape and lids, and sealed plates were incubated overnight at 4° C. A positive control will contain antibody instead of coating antigen.\nThe plates coated with coating antigen were removed from the refrigerator and were washed in three consecutive addition/aspiration steps with washing buffer (0.01% Tween-20 in 0.01M PBS). A washer/aspirator designed for washing 96-well microtiter plates (Handiwash; Dynatech Laboratories, Inc. or equivalent) was utilized.\nAfter the third addition of washing buffer, wells were incubated with washing buffer at room temperature for approximately 3-5 minutes. The plate was then washed in two additional consecutive addition/aspiration steps. Excess washing buffer was aspirated from the wells and the plate was inverted and tapped dry on a paper towel or other absorbent surface.\nAll wells of the microtiter plate had 300 μL of Blocking Solution (1% BSA in 0.01M PBS) added to each well. The plates were incubated at room temperature for one hour or overnight at 4° C.\nThe washing procedure described above is repeated to remove excess BSA. The coated, blocked and washed plates were either used immediately or sealed with sealing tape and stored refrigerated (4° C.) for up to 3 days or frozen (-20° C.) for up to one month.\nNinety six low protein binding micro-tubes were arranged in a tube rack with an 8×12 array to correspond to the microtiter plate plan. Duplicate external standard curves were established. Remaining tubes contained up to seven replicates of the diluted tissue extracts to which was added 190 μL of diluted sample and 10 μL of the protein A purified antibody (pAIgG). Positive control tubes contained 200 μL PBST. To the antibody negative controls, 10 μL of 0.01M PBS buffer were added instead of pAIgG. All tubes were vortexed after the antibody addition, incubated for approximately one hour and 100 μL transferred from each tube to the corresponding well in the microtiter plate according to the plate plan. Plates were incubated for one hour at 37° C. or overnight at 4° C.\nAfter incubation, plates were removed from the refrigerator and washed with washing buffer as described.\nTo each well 100 μL of the 1:5000 dilution of secondary antibody, goat, anti-rabbit IgG conjugated to alkaline phosphatase (Pierce Chemical Co.) was added and the plates were covered with a lid and incubated for one hour. […]", "data": [{"smiles": "CNC1C(O)C(NC)C2OC3(O)C(=O)CC(C)OC3OC2C1O", "note": "(stereo not shown) [spectinomycin, decahydro-4a,7,9-trihydroxy-2-methyl-6,8-bis(methylamino)-4H-pyrano[2,3-b][1,4]benzodioxin-4-one]", "values": [{"measurement": "Tissue Concentration", "setting": "fortified at 0.5, Day 1", "result": "0.47 ± 0.01", "unit": "µg/mL"}, {"measurement": "Tissue Concentration", "setting": "fortified at 0.5, Day 3", "result": "0.46 ± 0.01", "unit": "µg/mL"}, {"measurement": "Tissue Concentration", "setting": "fortified at 0.5, Day 13", "result": "0.53 ± 0.02", "unit": "µg/mL"}, {"measurement": "% Recovery", "setting": "fortified at 0.5, N 15", "result": 98, "unit": "%"}, {"measurement": "Avg Conc.", "setting": "fortified at 0.5, N 15", "result": 0.49, "unit": "µg/mL"}, {"measurement": "Tissue Concentration", "setting": "fortified at 1, Day 1", "result": "0.95 ± 0.07", "unit": "µg/mL"}, {"measurement": "Tissue Concentration", "setting": "fortified at 1, Day 3", "result": "0.78 ± 0.09", "unit": "µg/mL"}, {"measurement": "Tissue Concentration", "setting": "fortified at 1, Day 13", "result": "0.92 ± 0.05", "unit": "µg/mL"}, {"measurement": "% Recovery", "setting": "fortified at 1, N 15", "result": 88, "unit": "%"}, {"measurement": "Avg Conc.", "setting": "fortified at 1, N 15", "result": 0.88, "unit": "µg/mL"}, {"measurement": "Tissue Concentration", "setting": "fortified at 2, Day 1", "result": "1.44 ± 0.32", "unit": "µg/mL"}, {"measurement": "Tissue Concentration", "setting": "fortified at 2, Day 3", "result": "1.82 ± 0.09", "unit": "µg/mL"}, {"measurement": "Tissue Concentration", "setting": "fortified at 2, Day 13", "result": "1.83 ± 0.09", "unit": "µg/mL"}, {"measurement": "% Recovery", "setting": "fortified at 2, N 15", "result": 85, "unit": "%"}, {"measurement": "Avg Conc.", "setting": "fortified at 2, N 15", "result": 1.7, "unit": "µg/mL"}, {"measurement": "Percent recovery (range)", "setting": "liver homogenates fortified at 0.5, 1.0 and 2.0 ppm", "result": "85%-98"}]}]}
